Reference: PubChem BioAssay AID2551 (National Center for Advancing Translational Sciences (NCATS), 2010)
Screen size: about 310,000 compounds; about 17,000 (5.5%) were called active. Inconclusive results, whose numbers are uncertain, are shown with a selection of clear calls. The call rests on the fitted dose curve; in most records, active means well fitted inhibition curve with a large enough effect; inconclusive means small, poorly fitted or top-dose-only effect, or effect the other way; inactive means no such curve, though single readings can be large or run the other way. A potency beside an inconclusive call is a rough fit, not a confirmed value.

Chains of the proteins cited; added tags and fusions are not shown. Lines headed by an entry give the natural chain unless they say otherwise; changes in a name come on top.
UniProt P51450: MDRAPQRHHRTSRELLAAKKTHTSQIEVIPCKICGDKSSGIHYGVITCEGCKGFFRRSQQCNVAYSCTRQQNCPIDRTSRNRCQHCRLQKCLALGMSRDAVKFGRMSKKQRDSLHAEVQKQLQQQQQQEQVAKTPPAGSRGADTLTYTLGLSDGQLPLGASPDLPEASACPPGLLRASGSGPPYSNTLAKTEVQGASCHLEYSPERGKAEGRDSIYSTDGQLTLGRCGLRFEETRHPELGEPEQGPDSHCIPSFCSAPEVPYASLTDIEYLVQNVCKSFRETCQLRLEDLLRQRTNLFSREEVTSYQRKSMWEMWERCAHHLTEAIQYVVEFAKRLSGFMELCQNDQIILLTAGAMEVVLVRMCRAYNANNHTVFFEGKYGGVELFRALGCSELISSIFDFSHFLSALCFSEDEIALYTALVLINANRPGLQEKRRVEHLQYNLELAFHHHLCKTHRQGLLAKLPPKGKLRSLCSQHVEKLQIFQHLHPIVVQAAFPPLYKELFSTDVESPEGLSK

Target: Nuclear receptor ROR-gamma (Mus musculus) (UniProt P51450)
Test: qHTS for inhibitors of ROR gamma transcriptional activity; further: nearly all actives have a fitted effect of over 60% in size
Settings: Drosophila S2 Gal4-RORgamma UAS-luciferase reporter, 20 h; activity change, negative = inhibition: at 53.6 µM (top of the series)
Summary of the method: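 Drosophila S2 cells stably expressing Gal4-DBD/mouse RORγ fusion under metallothionein promoter plus UAS-luciferase; compound 1 h, then 700 uM CuSO4 induction for 20 h at ambient temperature; inhibition read as reduced luminescence.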
On the % scale 0 is the no-effect control and ±100 the full control effect; potency means the concentration at half of the fitted maximal effect.

| SMILES | Potency | activity change, negative = inhibition |
| --- | --- | --- |
| Cc1ccc(CSC2=NCCN2S(=O)(=O)c2ccccc2)cc1 | inconclusive: 31.6 µM [activator, single point] | – |
| O=C(Cc1ccccc1)Nc1cc2c(cc1Cl)OCCCO2 | – | inactive: -0.306% |
| CC(=O)NC(c1ccc(C)cc1)c1cc([N+](=O)[O-])c2cccnc2c1O (stereo not given) | active: 2.82 µM | – |
| COC(=O)c1ccc(NS(=O)(=O)c2ccc(SC)cc2)cc1 | inconclusive: 35.5 µM [activator, single point] | – |
| Cc1cccc(NC(=O)c2nc[nH]c2C(=O)N[C@@H](CCCCNC(=O)OC(C)(C)C)C(=O)OC(C)(C)C)c1 | active: 6.31 µM | – |
| c1ccc(-c2nnc(C(c3ccccc3)c3ccccc3)o2)cc1 | – | inactive: 21.5% |
| Nc1c(C(O)(C(F)(F)F)C(F)(F)F)ccc2ccccc12 | – | inactive: 26.8% |
| O=C(C1=C[C@H](c2ccc(Br)cc2)C[C@H](OCCCCO)O1)N1CCN(Cc2ccccc2)CC1 | inconclusive: 14.1 µM [activator, single point] | – |
| O=C(C1CCCCC1)N1CCC(CO)(Cc2ccccc2Cl)CC1 | inconclusive: 20 µM [activator, single point] | – |
| O=C(NCc1nc2ccccc2[nH]1)C1=C[C@@H](c2ccccc2)C[C@@H](OCc2ccc(CO)cc2)O1 | inconclusive: 25.1 µM [activator, single point] | – |
| Cc1cccc(C)c1OCc1cc(C(=O)N2CCC(c3ccncc3)CC2)no1 | inconclusive: 11.2 µM [activator, partial curve] | – |
| N/C(=N\OC(=O)CCCOc1ccccc1)c1ccccc1 | inconclusive: 11.2 µM [activator, partial curve] | – |
| CCN(CC)CCN(C(=O)CCS(=O)(=O)c1ccccc1)c1nc2cc3c(cc2s1)OCO3 | inconclusive: 12.6 µM [inhibitor, partial curve] | – |
| Cc1ccc(-n2c(=O)[nH]c3c(C(N)=O)nc(-c4ccc(C)o4)nc32)cc1 | inconclusive: 22.4 µM [inhibitor, single point] | – |
| Cc1cc(NC(=O)CCC(=O)N(Cc2cccnc2)C(C(=O)NC(C)(C)C)c2ccccc2Cl)no1 (stereo not given) | – | inactive: 15.3% |
| COc1ccccc1NC(=O)CCNS(=O)(=O)c1ccc2c(c1)CC(C)N2C(=O)C1CC1 (stereo not given) | – | inactive: 3.38% |
| COc1ccc(NC(=O)CSc2nc3ccccc3c(=O)n2CCCN2CCCCC2)c(OC)c1 | inconclusive: 3.16 µM [activator, partial curve, poor fit] | – |
| O=C(N/N=C/c1ccc(-c2cccc([N+](=O)[O-])c2)o1)c1ccccc1O | active: 3.16 µM | – |
| COc1c2ccccc2nc2ccccc12 | inconclusive: 22.4 µM [activator, single point] | – |
| COC(=O)COc1ccc(-c2ccccc2)cc1C=O | – | inactive: 26.2% |
| O=C(Nc1nc2cc3c(cc2s1)OCO3)C1CCCCC1 | inconclusive: 35.5 µM [inhibitor, single point] | – |
| Cc1c(C(=O)Nc2ccc(F)cc2)c2ccccn2c1CCc1ccncc1 | – | inactive: 9.65% |
| CCCn1nnc(NC(=S)NC(=O)C(C)(C)C)n1 | active: 3.55 µM | – |
| Cc1cccn2cc(CNS(=O)(=O)c3ccc4ccccc4c3)nc12 | inconclusive: 14.1 µM [activator, single point] | – |

A portion from the list above, as a working copy:

| SMILES | Potency | activity change, negative = inhibition |
| --- | --- | --- |
| Cc1cccc(NC(=O)c2nc[nH]c2C(=O)N[C@@H](CCCCNC(=O)OC(C)(C)C)C(=O)OC(C)(C)C)c1 | active: 6.31 µM | – |
| c1ccc(-c2nnc(C(c3ccccc3)c3ccccc3)o2)cc1 | – | inactive: 21.5% |
| Nc1c(C(O)(C(F)(F)F)C(F)(F)F)ccc2ccccc12 | – | inactive: 26.8% |
| O=C(C1=C[C@H](c2ccc(Br)cc2)C[C@H](OCCCCO)O1)N1CCN(Cc2ccccc2)CC1 | inconclusive: 14.1 µM [activator, single point] | – |

(cont.)

| SMILES | Potency | activity change, negative = inhibition |
| --- | --- | --- |
| CC1CC2=C(NC(=S)NC2c2ccccc2F)/C(=C/c2ccccc2F)C1 (stereo not given) | active: 2.82 µM | – |
| CC(C)C(NC(=S)NCc1ccccc1)C(=O)O (stereo not given) | inconclusive: 11.2 µM [inhibitor, partial curve, poor fit] | – |
| COC(=O)N1C(=O)[C@@](Cc2ccccc2)(c2ccccc2)N1C(=O)OC | inconclusive: 11.2 µM [inhibitor, single point] | – |
| O=C(CCCN1C(=O)/C(=C/c2ccccc2Cl)SC1=S)N1CCOCC1 | inconclusive: 3.16 µM [inhibitor, partial curve, poor fit] | – |
| CCOc1ccc(C2C(C(=O)c3ccco3)=C(O)C(=O)N2Cc2cccnc2)cc1 (stereo not given) | inconclusive: 14.1 µM [activator, single point] | – |
| Cc1cccc(C)c1NC1=NC(=S)N(c2ccc(C(=O)O)cc2)C12CCCCC2 | – | inactive: 19.6% |
| C/C(CC(=O)Nc1ccccn1)=N\NC(=O)C(=O)Nc1ccccc1C | inconclusive: 31.6 µM [inhibitor, single point] | – |
| COc1ccc(N=C2SC(CC(=O)Nc3ccccc3)C(=O)N2Cc2ccco2)cc1 (stereo not given) | inconclusive: 31.6 µM [activator, single point] | – |
| O=c1sc(/C=N/Nc2ccccc2)c(Cl)n1Cc1ccccc1 | inconclusive: 5.01 µM [activator, full curve] | – |
| COC(=O)c1ccc(C(NC(=O)OCc2ccccc2)/C(C)=C/[C@@H](C)C(=O)NCc2cc(C)on2)cc1 (stereo not given in full) | inconclusive: 12.6 µM [activator, partial curve] | – |
| COc1cc2[nH]c(=S)nc(NCc3ccc(C)cc3)c2cc1OC | active: 6.31 µM | – |
| CCOC(=O)Cc1csc(NC(=O)c2ccc3ncsc3c2)n1 | – | inactive: -19.1% |
| Cc1ccc(OCc2nnc(SCC(=O)c3ccccc3)n2-c2ccccc2)cc1 | inconclusive: 3.55 µM [inhibitor, full curve, poor fit] | – |
| CC1CC(=O)N(c2ccc(NCCc3ccc(O)cc3)c([N+](=O)[O-])c2)C1=O (stereo not given) | inconclusive: 31.6 µM [activator, single point] | – |
| COc1ccc(N2CCN(Cc3nc4c(c(=O)n(C)c(=O)n4C)n3CCc3ccccc3)CC2)cc1 | – | inactive: -12% |
| CCC(=O)Nc1nonc1-c1nc2ccccc2n1CC(C)C | inconclusive: 0.316 µM [inhibitor, full curve, poor fit] | – |
| Cc1ccc(C)c(SCC(=O)NCc2ccco2)c1 | inconclusive: 12.6 µM [activator, partial curve] | – |
| C=CCCC(=O)Nc1nc(C)c(-c2csc(Nc3cccc(OC)c3)n2)s1 | inconclusive: 11.2 µM [activator, partial curve] | – |
| COC(=O)c1ccccc1NC(=S)NC(=O)COc1ccccc1Cl | active: 10 µM | – |
| CC(Sc1ccc(Cl)cc1)C(=O)NNC(=O)c1ccccc1O (stereo not given) | inconclusive: 3.55 µM [inhibitor, partial curve] | – |
| COC(=O)/C(=C\c1c[nH]c2ccccc12)NC(C)=O | inconclusive: 14.1 µM [activator, single point] | – |
| CCOC(=O)C1=C(C)N(C)C(C)=C(C(=O)OCC)C1c1ccsc1 | – | inactive: -14.9% |
| COc1ccc2cc(C(N)=O)c(=Nc3ccc(C)cc3)oc2c1 | inconclusive: 11.2 µM [activator, partial curve, poor fit] | – |
| O=C(C1CCCN(c2ncnc3c2nc2n3CCCCC2)C1)N1CCN(c2cccc(Cl)c2)CC1 (stereo not given) | inconclusive: 20 µM [activator, single point] | – |

| SMILES | Potency | activity change, negative = inhibition |
| --- | --- | --- |
| O=C(Nc1ccc(C(=O)O)cc1)/C(=C\c1ccc2c(c1)OCO2)NC(=O)c1ccc(Br)cc1 | inconclusive: 4.47 µM [activator, partial curve, poor fit] | – |
| OC(CN1CCCCC1)Cn1c2ccc(Cl)cc2c2cc(Cl)ccc21 (stereo not given) | inconclusive: 1.58 µM [inhibitor, partial curve] | – |
| O=C(c1ccco1)[C@@H]1[C@@H]2C(=O)N(c3ccc(F)cc3)C(=O)[C@@H]2[C@H]2C=Cc3ccccc3N21 | inconclusive: 35.5 µM [inhibitor, single point] | – |
| Cc1ccc(C(=O)N/C(=C/c2ccc(Cl)cc2)C(=O)N2CCOCC2)cc1 | – | inactive: 7.9% |
| Cc1ccc(S(=O)(=O)N(CC(=O)Nc2cccc([N+](=O)[O-])c2)Cc2ccc(Cl)cc2)cc1 | inconclusive: 35.5 µM [activator, single point] | – |
| O=C(NC(Cc1ccccc1)c1nc2ccccc2[nH]1)c1ccc(Cl)c([N+](=O)[O-])c1 (stereo not given) | inconclusive: 20 µM [inhibitor, partial curve, poor fit] | – |
| Cc1csc(SCC(=O)N2CCN(S(=O)(=O)c3ccc(Cl)cc3)CC2)n1 | inconclusive: 3.98 µM [inhibitor, single point] | – |
| O=C(NNC(=O)c1ccccc1Br)c1ccc2nc[nH]c2c1 | – | inactive: -15.4% |
| Cc1ccc(SCC(=O)NCC(C)C)cc1 | – | inactive: 4.83% |
| COc1ccc(C)cc1NC(=O)CSc1nnc(COc2ccc(C)cc2)n1Cc1ccco1 | inconclusive: 15.8 µM [activator, single point] | – |
| CCOc1ccc(S(=O)(=O)Nc2ccc(C(=O)N/N=C(\C)c3ccc(-n4ccnc4)cc3)cc2)cc1 | – | inactive: 14.3% |
| CCc1nnc(NC(=O)C2CCCN(c3nc(C)cc(C)n3)C2)s1 (stereo not given) | – | inactive: 6.88% |
| CSCCC(NS(=O)(=O)c1ccc2ccccc2c1)C(=O)OCC(=O)c1ccc(C(C)C)cc1 (stereo not given) | – | inactive: 38.3% |
| c1ccc(N2CCN(Cc3ccsc3)CC2)nc1 | – | inactive: 0.254% |
| C/C=C(/C)C(=O)OC1Cc2c(ccc3ccc(=O)oc23)OC1(C)C (stereo not given) | inconclusive: 25.1 µM [inhibitor, single point] | – |
| O=C(CCc1ccc(S(=O)(=O)NCCc2ccccc2)cc1)N1CCN(Cc2ccc3c(c2)OCO3)CC1 | – | inactive: 37.8% |
| O=C(Nc1ccc(S(=O)(=O)N2CCCCCC2)cc1)c1c(F)cccc1F | inconclusive: 35.5 µM [activator, partial curve] | – |
| Cc1ccc(S(=O)(=O)NCCOc2cc(C)ccc2C)cc1 | – | inactive: 0% |
| O=C(COc1ccc(Br)cc1CNC1CCCC1)Nc1ccccc1 | inconclusive: 35.5 µM [inhibitor, single point] | – |
| COc1ccc(N2C(=O)CC(Sc3nnnn3-c3ccc(F)cc3)C2=O)cc1 (stereo not given) | active: 11.2 µM | – |
| COc1ccc(C2(C(=O)NCCCN3CCOCC3)CCOCC2)cc1 | active: 3.55 µM | – |
| NC(N)=NC(N)=Nc1cccc(Cl)c1 | inactive | – |
